According to paper PMC4385928:
These are yes or no findings as the source states them, for the method shown. For some assays here: Binding seen in cells or lysates may run through a third protein. Some entries that bind do so weakly or less than the wild type. For some assays here: Sequences can lack the tags named with a protein. One block for each molecule: values may come before it.

By UniProt entry, the sequences of proteins in these tests, tags left out.
UniProt Q13153: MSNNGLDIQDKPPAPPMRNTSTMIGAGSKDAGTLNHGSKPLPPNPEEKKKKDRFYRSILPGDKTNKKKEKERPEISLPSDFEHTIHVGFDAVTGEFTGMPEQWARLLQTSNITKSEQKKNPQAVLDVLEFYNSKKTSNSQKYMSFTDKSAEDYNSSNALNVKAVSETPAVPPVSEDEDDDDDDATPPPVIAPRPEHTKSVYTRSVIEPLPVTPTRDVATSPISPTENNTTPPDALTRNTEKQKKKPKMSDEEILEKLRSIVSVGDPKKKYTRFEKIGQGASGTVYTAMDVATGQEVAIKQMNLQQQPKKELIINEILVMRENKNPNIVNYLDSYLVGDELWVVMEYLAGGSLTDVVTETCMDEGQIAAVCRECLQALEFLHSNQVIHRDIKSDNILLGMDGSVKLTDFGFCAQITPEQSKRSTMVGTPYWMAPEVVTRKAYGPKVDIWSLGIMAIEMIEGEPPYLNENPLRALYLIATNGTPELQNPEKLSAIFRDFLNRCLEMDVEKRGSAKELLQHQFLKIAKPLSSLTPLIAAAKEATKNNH

Legend:
[1] = target: T1, GST-RUFY3 (RUN and FYVE domain containing 3) (human) (UniProt Q7L099); experiment: pull-down; GST-fusion protein on glutathione-conjugated Sepharose beads; 10 ul of in vitro translated His-tagged protein (TNT system); bound proteins visualized by western blot with anti-His antibody; only the target purified
T1 sequence: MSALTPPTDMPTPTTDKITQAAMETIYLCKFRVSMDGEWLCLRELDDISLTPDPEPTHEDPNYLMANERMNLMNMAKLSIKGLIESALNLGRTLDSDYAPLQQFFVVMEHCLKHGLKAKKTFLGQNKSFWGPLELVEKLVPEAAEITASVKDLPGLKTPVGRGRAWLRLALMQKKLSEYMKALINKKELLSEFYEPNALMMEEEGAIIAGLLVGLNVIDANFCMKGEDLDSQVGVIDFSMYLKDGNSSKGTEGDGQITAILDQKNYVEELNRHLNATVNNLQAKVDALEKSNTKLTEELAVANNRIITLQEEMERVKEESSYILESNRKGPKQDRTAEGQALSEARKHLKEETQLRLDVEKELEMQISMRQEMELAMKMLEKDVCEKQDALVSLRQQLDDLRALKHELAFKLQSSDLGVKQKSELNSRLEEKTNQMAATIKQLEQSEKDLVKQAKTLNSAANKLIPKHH

[2] = target: T2, endogenous RUFY3 of BGC-823 cells (human (endogenous in BGC-823)) (UniProt Q7L099); experiment: co-IP; endogenous proteins in cell lysates (COS-7, BGC-823); IP with anti-PAK1 or anti-RUFY3 antibody and protein A-Sepharose 4B; IP lysis buffer 25 mM Tris pH 7.4, 150 mM NaCl, 1% Nonidet P-40, 1 mM EDTA
T2 sequence: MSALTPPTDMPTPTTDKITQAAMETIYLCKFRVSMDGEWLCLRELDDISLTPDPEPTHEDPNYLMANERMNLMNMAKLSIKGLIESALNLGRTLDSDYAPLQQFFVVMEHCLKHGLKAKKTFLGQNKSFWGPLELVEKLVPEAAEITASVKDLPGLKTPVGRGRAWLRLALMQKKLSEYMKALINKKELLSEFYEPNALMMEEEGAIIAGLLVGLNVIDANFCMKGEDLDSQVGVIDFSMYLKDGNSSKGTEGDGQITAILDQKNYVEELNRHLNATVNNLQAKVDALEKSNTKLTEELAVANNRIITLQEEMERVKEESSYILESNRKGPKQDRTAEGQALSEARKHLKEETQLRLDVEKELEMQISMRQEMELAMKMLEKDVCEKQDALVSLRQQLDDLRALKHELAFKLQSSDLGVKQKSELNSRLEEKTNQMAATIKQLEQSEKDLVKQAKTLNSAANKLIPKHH

[3] = target: T3, GFP-RUFY3 (human) (UniProt Q7L099); experiment: co-IP; lysate of HEK293 cells co-transfected with GFP-RUFY3 and myc-PAK1; IP with anti-GFP antibody and protein A-Sepharose 4B; blot with anti-myc and anti-GFP; IP lysis buffer 25 mM Tris pH 7.4, 150 mM NaCl, 1% Nonidet P-40, 1 mM EDTA
T3 sequence: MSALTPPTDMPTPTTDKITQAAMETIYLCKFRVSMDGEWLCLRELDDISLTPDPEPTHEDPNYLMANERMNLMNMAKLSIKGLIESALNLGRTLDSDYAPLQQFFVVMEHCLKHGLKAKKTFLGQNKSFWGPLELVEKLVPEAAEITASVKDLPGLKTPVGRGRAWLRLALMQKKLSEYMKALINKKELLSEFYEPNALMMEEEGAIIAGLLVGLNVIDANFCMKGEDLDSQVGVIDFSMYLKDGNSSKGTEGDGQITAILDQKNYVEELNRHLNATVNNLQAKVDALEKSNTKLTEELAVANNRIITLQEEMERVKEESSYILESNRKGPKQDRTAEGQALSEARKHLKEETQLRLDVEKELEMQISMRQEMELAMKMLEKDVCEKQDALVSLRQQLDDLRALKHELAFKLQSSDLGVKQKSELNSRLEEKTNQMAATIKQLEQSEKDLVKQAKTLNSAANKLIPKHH

[4] = target: GST-PAK1 (UniProt Q13153); experiment: pull-down; GST-fusion protein on glutathione-conjugated Sepharose beads; 10 ul of in vitro translated His-tagged protein (TNT system); bound proteins visualized by western blot with anti-His antibody; only the target purified
[5] = target: PAK1, yeast two-hybrid bait (UniProt Q13153); experiment: two-hybrid; yeast two-hybrid screen with PAK1 as bait; no further details given

binding [1]: binds
Molecule: In vitro-translated His-PAK1 (P21-activated kinase-1) (from UniProt Q13153 1-545) (enzyme)

binding [2]: binds
Molecule: endogenous PAK1 of BGC-823 cells (from UniProt Q13153 1-545) (enzyme)

binding [3]: binds
Molecule: myc-PAK1 (from UniProt Q13153 1-545) (enzyme)

binding [4]: binds
B1: In vitro-translated His-RUFY3 (protein, UniProt Q7L099 1-469)
chain: MSALTPPTDMPTPTTDKITQAAMETIYLCKFRVSMDGEWLCLRELDDISLTPDPEPTHEDPNYLMANERMNLMNMAKLSIKGLIESALNLGRTLDSDYAPLQQFFVVMEHCLKHGLKAKKTFLGQNKSFWGPLELVEKLVPEAAEITASVKDLPGLKTPVGRGRAWLRLALMQKKLSEYMKALINKKELLSEFYEPNALMMEEEGAIIAGLLVGLNVIDANFCMKGEDLDSQVGVIDFSMYLKDGNSSKGTEGDGQITAILDQKNYVEELNRHLNATVNNLQAKVDALEKSNTKLTEELAVANNRIITLQEEMERVKEESSYILESNRKGPKQDRTAEGQALSEARKHLKEETQLRLDVEKELEMQISMRQEMELAMKMLEKDVCEKQDALVSLRQQLDDLRALKHELAFKLQSSDLGVKQKSELNSRLEEKTNQMAATIKQLEQSEKDLVKQAKTLNSAANKLIPKHH

binding [5]: binds
B2: human RUFY3, yeast two-hybrid prey (protein, UniProt Q7L099 1-469)
chain: MSALTPPTDMPTPTTDKITQAAMETIYLCKFRVSMDGEWLCLRELDDISLTPDPEPTHEDPNYLMANERMNLMNMAKLSIKGLIESALNLGRTLDSDYAPLQQFFVVMEHCLKHGLKAKKTFLGQNKSFWGPLELVEKLVPEAAEITASVKDLPGLKTPVGRGRAWLRLALMQKKLSEYMKALINKKELLSEFYEPNALMMEEEGAIIAGLLVGLNVIDANFCMKGEDLDSQVGVIDFSMYLKDGNSSKGTEGDGQITAILDQKNYVEELNRHLNATVNNLQAKVDALEKSNTKLTEELAVANNRIITLQEEMERVKEESSYILESNRKGPKQDRTAEGQALSEARKHLKEETQLRLDVEKELEMQISMRQEMELAMKMLEKDVCEKQDALVSLRQQLDDLRALKHELAFKLQSSDLGVKQKSELNSRLEEKTNQMAATIKQLEQSEKDLVKQAKTLNSAANKLIPKHH
